Data as given in publication PMC6120224.
Results are given in words; binding and its absence hold for the method and conditions named. In cells and extracts the contact can be indirect. These calls come from enrichment with a bait or labelling near it, and not all partners need be listed.

Sequences of proteins named here, by UniProt entry; tags and fusion partners are left off. Residues count along the entry.
UniProt O75509, residues 42-655: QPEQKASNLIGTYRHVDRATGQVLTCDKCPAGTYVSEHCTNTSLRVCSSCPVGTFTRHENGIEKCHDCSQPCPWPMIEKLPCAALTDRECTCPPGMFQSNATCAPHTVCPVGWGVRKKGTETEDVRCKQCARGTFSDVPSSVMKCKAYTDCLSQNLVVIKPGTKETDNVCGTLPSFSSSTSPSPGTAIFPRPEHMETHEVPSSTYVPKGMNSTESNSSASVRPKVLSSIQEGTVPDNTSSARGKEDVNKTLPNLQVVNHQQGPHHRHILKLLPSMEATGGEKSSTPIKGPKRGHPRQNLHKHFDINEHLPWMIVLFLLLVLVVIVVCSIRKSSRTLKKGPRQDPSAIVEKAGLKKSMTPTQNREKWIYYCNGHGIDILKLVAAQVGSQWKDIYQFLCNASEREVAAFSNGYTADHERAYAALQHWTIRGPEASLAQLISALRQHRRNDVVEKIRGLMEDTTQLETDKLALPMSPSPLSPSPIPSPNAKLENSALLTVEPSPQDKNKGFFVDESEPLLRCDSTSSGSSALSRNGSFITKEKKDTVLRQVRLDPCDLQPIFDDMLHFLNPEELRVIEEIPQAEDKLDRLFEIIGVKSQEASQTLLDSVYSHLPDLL
UniProt P52732: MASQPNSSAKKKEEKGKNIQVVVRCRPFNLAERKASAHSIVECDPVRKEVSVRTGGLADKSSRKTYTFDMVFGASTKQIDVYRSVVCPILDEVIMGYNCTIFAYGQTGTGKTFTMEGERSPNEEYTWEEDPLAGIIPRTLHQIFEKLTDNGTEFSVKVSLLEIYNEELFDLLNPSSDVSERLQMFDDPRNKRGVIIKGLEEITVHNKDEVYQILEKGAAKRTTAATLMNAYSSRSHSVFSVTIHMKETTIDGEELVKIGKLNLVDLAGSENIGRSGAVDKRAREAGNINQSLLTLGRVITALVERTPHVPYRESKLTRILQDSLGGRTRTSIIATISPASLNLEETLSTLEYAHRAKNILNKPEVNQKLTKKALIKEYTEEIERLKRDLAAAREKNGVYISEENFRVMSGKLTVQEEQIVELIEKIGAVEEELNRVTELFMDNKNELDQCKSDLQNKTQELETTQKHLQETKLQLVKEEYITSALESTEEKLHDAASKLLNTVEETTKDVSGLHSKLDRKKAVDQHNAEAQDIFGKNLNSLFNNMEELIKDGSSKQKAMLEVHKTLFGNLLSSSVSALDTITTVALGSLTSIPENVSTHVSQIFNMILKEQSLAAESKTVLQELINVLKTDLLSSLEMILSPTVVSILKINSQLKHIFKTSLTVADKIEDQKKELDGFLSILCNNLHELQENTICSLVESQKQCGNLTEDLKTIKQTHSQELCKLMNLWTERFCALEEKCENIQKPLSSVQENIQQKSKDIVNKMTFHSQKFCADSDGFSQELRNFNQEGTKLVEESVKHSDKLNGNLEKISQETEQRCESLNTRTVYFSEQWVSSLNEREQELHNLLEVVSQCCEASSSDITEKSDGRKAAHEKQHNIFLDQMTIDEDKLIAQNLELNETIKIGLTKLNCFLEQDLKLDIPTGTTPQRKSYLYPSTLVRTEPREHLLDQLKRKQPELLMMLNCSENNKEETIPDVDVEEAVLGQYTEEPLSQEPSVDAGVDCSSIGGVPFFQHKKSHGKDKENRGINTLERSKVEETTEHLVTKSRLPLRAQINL

Molecular target: Flag-DR6 recombinant protein (death receptor 6), expressed in HEK-293T cells (human) (UniProt O75509)
Experiment: affinity purification with mass spectrometry; lysate of HEK-293T cells expressing Flag-DR6 (control: Flag-GFP) purified on Flag agarose, SDS/PAGE, silver stain, MS

kinesin family member 11 (KIF11), in HEK-293T cells (from UniProt P52732 1-1056)
binding: binds
